Measurements from the supplement of paper PMC7858590.
± gives the standard deviation of the averaged measurements. Whole data set: some 3,800 compounds, median “cell shape (eccentricity) Z-score vs DMSO control” near 1.1, cut for the lowest 2% near -4.7. The list shows a part of the results.

Tested on: human monocyte-derived macrophages (M0)
Assay: cell shape (eccentricity) Z-score vs DMSO control; higher = more elongated, M2-like morphology
Settings: 20 µM; 24 h; macrophage state: M0 (M-CSF)

| SMILES | cell shape (Z-score) |
| --- | --- |
| COc1c(O)cc2c(c1O)C(=O)OC(C)C2O (stereo unspecified) | -0.537 |
| CC(C)(C)NCC(O)COc1cccc2c1CCCC2=O (stereo unspecified) | 1.87 |
| O=c1c(-c2ccc(O)cc2)coc2cc(O)cc(O)c12 | 4.15 |
| COc1ccc(-c2coc3c(OC)c(OC)cc(OC4OC(CO)C(O)C(O)C4OC4OCC(O)C(O)C4O)c3c2=O)cc1 (stereo unspecified) | 0.226 |
| CC(=O)OC[C@@]12C(=O)C[C@@H](C)[C@]3(C[C@@H](c4ccoc4)OC3=O)[C@H]1CC[C@H](OC(C)=O)[C@]21CO1 | -0.129 |
| C=CC(C)(CC/C=C(\C)C(=O)O)O[C@@H]1O[C@H](C)[C@@H](O)[C@H](O)[C@H]1O (stereo partly specified) | 0.936 |
| O=C(c1ccc(/C=C/c2n[nH]c3ccccc23)cc1)N1CCNCC1 | 20.2 |
| CCC/C=C/C=C/C1CC(O)C(O)C(O)C1CO (stereo unspecified) | 0.441 |
| COc1ccc(C=CC(=O)Nc2ccccc2C(=O)O)cc1OC | -1.37 |
| COc1cc(C(C)/C=C(/C)CC(=O)O)oc(=O)c1C (stereo unspecified) | 0.462 ± 0.48 |
| COc1ccc(-c2coc3cc(O)ccc3c2=O)cc1 | 2.79 |
| COc1cc(N)c(Cl)cc1C(=O)CCC1CCN(CCNS(C)(=O)=O)CC1 | -0.808 |
| C=C1C(O)C(O)C2(CC3C(C)=CCC4C(C)(C(=O)O)CCCC34C)OC2C1O (stereo unspecified) | 4.78 |
| Nc1nc(=O)c2nc(CNc3ccc(C(=O)N[C@@H](CCC(=O)O)C(=O)O)cc3)cnc2[nH]1 | 3.54 |
| Cc1cn([C@H]2C[C@H](N=[N+]=[N-])[C@@H](CO)O2)c(=O)[nH]c1=O | -2.27 |
| O=C(N/N=C/c1ccccc1O)c1ccccc1O | 1.34 |
| COC(=O)c1c(OC)cc2c(c1C)Oc1c(Cl)c(O)c(Cl)c(C)c1C(=O)O2 | 1.55 |
| CN(C)CCN(Cc1ccc(Cl)cc1)c1ccccn1 | 3.03 |
| CC(=N)NCc1cccc(CN)c1 | 0.873 |
| NS(=O)(=O)Cc1noc2ccccc12 | 2.34 |
| COc1ccccc1N1CCN(CCCCNC(=O)c2ccc(-c3ccc(C(C)=O)cc3)cc2)CC1 | 1.7 |
| Cc1ccc(C(=O)Nc2ccc(S(=O)(=O)O)c3cc(S(=O)(=O)O)cc(S(=O)(=O)O)c23)cc1NC(=O)c1cccc(NC(=O)Nc2cccc(C(=O)Nc3cc(C(=O)Nc4ccc(S(=O)(=O)O)c5cc(S(=O)(=O)O)cc(S(=O)(=O)O)c45)ccc3C)c2)c1 | 11.2 |
| Cc1ccc2c(c1)c1c3n2CCNC3CCC1 (stereo unspecified) | 3.56 |
| COc1cc(C2c3c(cc(OC)c(O)c3OC)CC(CO[C@@H]3O[C@H](CO)[C@@H](O)[C@H](O)[C@H]3O)C2CO)cc(OC)c1O (stereo partly specified) | 0.246 |
| Cc1c(S(=O)(=O)O)oc2c1C(=O)C(=O)c1c-2ccc2c1CCCC2(C)C | 1.31 |
| COc1ccc2cc1Oc1ccc(cc1)C[C@H]1c3cc(c(OC)cc3CCN1C)Oc1c(OC)c(OC)cc3c1[C@H](C2)N(C)CC3 | 1.85 |

Exported with each value named: 2 of the compounds above
COc1cc(C(C)/C=C(/C)CC(=O)O)oc(=O)c1C (stereo unspecified)
  cell shape (Z-score): 0.462 ± 0.48
COc1ccc(-c2coc3cc(O)ccc3c2=O)cc1
  cell shape (Z-score): 2.79
